Test results: article PMC12830623
The exact form of at least one protein or probe is not confirmed.

Columns and labels:
Experiment in all cases: X-ray crystallography
Details in all cases: binary post-catalytic complex, closed finger, 20 mM MgCl2 in duplex preparation, primer S9 enzymatically extended with two TNA residues (3'-tTtA-2') at positions 12-13, rest DNA, Crystallization: duplex in 50 mM Tris-HCl pH 8.5, 200 mM NaCl, 0.1 mM EDTA, 1 mM DTT, hanging drop, recombinant protein, protein details: tagless, label: 5'-Cy5 on template T1, letters put together from the description
5-270 TNAP = test system: 5-270 TNAP
10-92 TNAP = test system: 10-92 TNAP
7-47 TNAP = test system: 7-47 TNAP
8-64 TNAP = test system: 8-64 TNAP

Measured: binding result

CGCGAACTGCGTA / AAACGTACGCAGTTCGCG [P/T1 duplex extended with tTtA (binary)]
binds: all assays above
